ChEMBL document CHEMBL4831506, “Discovery of novel trimethoxyphenylbenzo[d]oxazoles as dual tubulin/PDE4 inhibitors capable of inducing apoptosis at G2/M phase arrest in glioma and lung cancer cells” (Eur J Med Chem, 2021)

Tested on: NCI-H460
Assay: Antiproliferative activity against human NCI-H460 cells after 48 hrs by MTT assay
Format: functional, cell-based
Details: NCI-H460, 48 h

With `COc1cc2c(c(OC)c1OC)-c1ccc(OC)c(=O)cc1[C@@H](NC(C)=O)CC2` [COLCHICINE] the IC50 was 22 nM.
